No constants are given. Whether binding was seen depends on the method and setting. Binding seen in cells or lysates may run through a third protein. Some results given as binding are weak or reduced against the parent protein; the word gives no strength. Tags and fused reporters may be left off the sequences shown.

By UniProt entry, the sequences of proteins in these tests, tags left out.
UniProt P21708: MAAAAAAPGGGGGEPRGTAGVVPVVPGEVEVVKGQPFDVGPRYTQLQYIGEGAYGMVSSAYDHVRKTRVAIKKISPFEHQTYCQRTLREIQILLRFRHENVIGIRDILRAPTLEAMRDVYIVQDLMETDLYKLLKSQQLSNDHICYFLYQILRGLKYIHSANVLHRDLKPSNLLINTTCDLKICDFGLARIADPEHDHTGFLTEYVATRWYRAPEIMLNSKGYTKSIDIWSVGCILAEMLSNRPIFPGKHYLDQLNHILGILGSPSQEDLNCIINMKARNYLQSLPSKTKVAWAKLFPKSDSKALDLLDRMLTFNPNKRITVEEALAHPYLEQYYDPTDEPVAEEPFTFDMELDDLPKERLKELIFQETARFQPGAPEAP
UniProt P63086: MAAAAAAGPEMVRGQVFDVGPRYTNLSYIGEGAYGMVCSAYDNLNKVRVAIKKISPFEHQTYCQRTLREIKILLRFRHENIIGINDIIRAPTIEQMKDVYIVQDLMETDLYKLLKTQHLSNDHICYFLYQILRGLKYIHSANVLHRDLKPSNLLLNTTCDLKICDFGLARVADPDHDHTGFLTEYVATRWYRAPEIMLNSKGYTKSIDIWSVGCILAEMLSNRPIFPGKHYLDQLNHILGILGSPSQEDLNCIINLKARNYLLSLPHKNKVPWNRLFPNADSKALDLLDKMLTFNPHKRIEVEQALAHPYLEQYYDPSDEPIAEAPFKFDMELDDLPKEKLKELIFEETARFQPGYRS

Binding data for two molecules are collected here from paper PMC6831308.

Assay [1] concerns the target ERK1 (rat (endogenous in primary cardiomyocytes of SD rats)) (UniProt P21708). Kind of assay: co-IP; IP with monoclonal antibodies against ERK1/2 (CST) and against Maf1 (Santa Cruz), Pierce Classic IP Kit; 1 mg precleared cell lysate with 1 ug antibody overnight at 4 C, protein A/G plus agarose; primary cardiomyocytes of SD rats, 50 uM PE for 24 hours; with and without adenoviral overexpression of Maf1.

In assay [2] the target is ERK2 (rat (endogenous in primary cardiomyocytes of SD rats)) (UniProt P63086). The assay is described as above.

B1: Maf1 (protein, UniProt Q5XIH0 1-260)
chain: MKLLENSSFEAINSQLTVETGDAHIIGRIESYSCKMAGDDKHMFKQFCQEGQPHVLEALSPPQTSGLSPSRLSKSQGGEDESPLSDKCSRKTLFYLIATLNESFRPDYDFSTARSHEFSREPSLRWVVNAVNCSLFSAVREDFKALKPQLWNAVDEEICLAECDIYSYNPDLDSDPFGEDGSLWSFNYFFYNKRLKRIVFFSCRSISGSTYTPSEAGNALDLELGAEEVDEESGGGGGGGEGRAEETSTMEEDRVPVICM
For the molecule B1, the binding result in assay [1] and in assay [2] was “binds” in each case.

B2: Maf1 overexpressed from recombinant adenovirus (Ad-Maf1) (protein, UniProt Q5XIH0 1-260)
chain: MKLLENSSFEAINSQLTVETGDAHIIGRIESYSCKMAGDDKHMFKQFCQEGQPHVLEALSPPQTSGLSPSRLSKSQGGEDESPLSDKCSRKTLFYLIATLNESFRPDYDFSTARSHEFSREPSLRWVVNAVNCSLFSAVREDFKALKPQLWNAVDEEICLAECDIYSYNPDLDSDPFGEDGSLWSFNYFFYNKRLKRIVFFSCRSISGSTYTPSEAGNALDLELGAEEVDEESGGGGGGGEGRAEETSTMEEDRVPVICM
With B2, the binding entry in assay [1] and in assay [2] was “binds” each time.
